PubChem BioAssay AID652054 (National Center for Advancing Translational Sciences (NCATS), 2013)
In all, about 360,000 compounds went through this assay and about 9,100 (2.5%) were called active. Inconclusive results, whose numbers are uncertain, are shown with a selection of clear calls. Cut-off read from the data, not from the text of the source: active = max response below about -50%; inconclusive = no clear call, values can overlap the other calls; inactive = above that.

Sequences of proteins named here, by UniProt entry; tags and fusion partners are left off.
UniProt P35462, whole entry, looked up: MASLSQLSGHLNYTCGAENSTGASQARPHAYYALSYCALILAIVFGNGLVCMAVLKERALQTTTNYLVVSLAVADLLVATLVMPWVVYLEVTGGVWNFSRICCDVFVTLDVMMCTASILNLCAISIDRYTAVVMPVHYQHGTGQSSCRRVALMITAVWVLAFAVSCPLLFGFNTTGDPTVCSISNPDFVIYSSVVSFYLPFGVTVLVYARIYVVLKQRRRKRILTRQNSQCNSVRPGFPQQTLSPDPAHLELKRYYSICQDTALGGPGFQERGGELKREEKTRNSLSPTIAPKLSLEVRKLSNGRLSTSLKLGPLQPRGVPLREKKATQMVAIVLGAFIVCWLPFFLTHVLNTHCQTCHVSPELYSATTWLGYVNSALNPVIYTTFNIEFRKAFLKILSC

The compounds below were run against D(3) dopamine receptor (Homo sapiens) (UniProt P35462) (assay: qHTS of D3 Dopamine Receptor Antagonist: qHTS). Settings: D3R cells, DiscoveRx beta-arrestin luminescence, antagonist mode; stronger effect = lower value.
Summary of the method: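 Cells expressing the human receptor were seeded at 1500 cells/well, incubated overnight at 37 degrees C in 5% CO2, then exposed to library compounds with dopamine controls for 90 minutes at 37 degrees C before luminescent detection.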
% is set by controls: 0 for no effect and ±100 for the full control effect.

Max response, negative = inhibition, active:
Oc1ccc(N=Nc2ccccc2C(F)(F)F)c2cccnc12 -124%, COc1ccc(C(CNC(=O)c2cc3ccccc3o2)N2CCCCC2)cc1 (stereo unspecified) -73.8%, Cc1ccc(C)c(OCCCN2CCc3ccccc3C2)c1 -88.6%, COc1cc(C(=O)O/N=C2\C=CC(=O)C(C)=C2)cc(OC)c1OC -57.4%, COc1ccc(CN2CCN(c3ccccc3OC)CC2)c(OC)c1 -100%, CC1CCN(CCCn2c(=S)[nH]c3ccc(N4CCOCC4)cc3c2=O)CC1 -80.9%, Cc1ccccc1NC(=O)CC1SC(=O)N(c2ccccc2)C1=O (stereo unspecified) -91.9%, Nc1cc(C(=O)O)c(N)c2c1C(=O)c1ccccc1C2=O -55%, c1ccc(OCc2nn3c(-c4n[nH]c5c4CCC5)nnc3s2)cc1 -52.2%, CC(C)(C)c1ccc(C(=O)CC(Sc2ccc(Cl)cc2)C(=O)O)cc1 (stereo unspecified) -64%, CN1CCC(Oc2ccccc2Sc2ccccc2)CC1 -63.4%, CCN(CC)CCSc1nnc2c3ccccc3n(CCc3ccccc3)c2n1 -79.2%, CCc1ccc(C2C(C(C)=O)=C(C(=O)OC)Nc3nnnn32)cc1 (stereo unspecified) -56.8%, OC1(c2ccc(Br)cc2)CCN(Cc2cccc(Br)c2)CC1 -106%, Cc1cc(C)n(CC(=O)N/N=C/c2cc(Br)cc([N+](=O)[O-])c2O)n1 -66.4%, CCSc1nnc(NC(=O)c2cnccn2)s1 -136%

Max response, negative = inhibition, inactive:
COc1ccc(NC(=O)C(C)N2C(=O)c3ccccc3S2(=O)=O)c(OC)c1 (stereo unspecified) 7.64%, CC(C)C(=O)OCCN=C1NS(=O)(=O)c2ccccc21 5.67%, N/C(=N\OC(=O)c1ccc(Cl)c(Cl)c1)c1cccc(CSc2ccccn2)c1 17.5%, COc1ccc(NC(=O)C2(C)Cc3c(-c4ccc(C(N)=O)cc4)ccnc3O2)cn1 (stereo unspecified) -4.05%, CC(Sc1nnc(C2CC2)n1-c1ccccc1)C(=O)N1CCCC1 (stereo unspecified) -5.17%, O=C(Cc1ccc(Br)cc1)NNC(=O)c1cccs1 -8.88%, CCOc1ccccc1NC(=O)C(OC(=O)c1ccc(N(C)C)cc1)c1ccccc1 (stereo unspecified) 44.1%, O=C(CSc1ccc(-c2ccc(Cl)cc2)nn1)NC1CCCC1 28.8%, Cn1cc(/C=C2\SC(=S)N(NC(=O)c3ccccc3)C2=O)c2ccccc21 2.09%

Max response, negative = inhibition, inconclusive:
Cc1ccc(C)c(S(=O)(=O)N2CCN(CC(=O)Nc3ccc4c(c3)OCCO4)CC2)c1 -32.5%, Cc1cccnc1NC(=O)c1ccc(S(=O)(=O)N2CC(C)OC(C)C2)cc1 (stereo unspecified) -41.7%, Cc1cc(C(=O)Nc2ccc(S(=O)(=O)N3CCOCC3)cc2)c(C)o1 -32.6%, O=C(COc1cccc2ccccc12)NNC(=O)Nc1ccccc1 -41.5%, Cc1ccc2nc(N(CCCN(C)C)C(=O)CCc3ccccc3)sc2c1 -46%, O=C(NCc1ccccc1)c1ccc(NS(=O)(=O)c2cccs2)cc1 -42.5%, CCN(CC)CCC(=O)N1c2ccccc2Sc2ccc(Cl)cc21 -41.7%, O=C(NCc1ccco1)c1c[nH]c2ccc(S(=O)(=O)N3CCOCC3)cc2c1=O -36.8%, CCn1c(=S)sc2c(=O)n(-c3ccccc3)c(SCC(=O)NCc3ccco3)nc21 -30.5%, Cc1oc(-c2ccccc2F)nc1CN1CCC(C(=O)NC2CCCc3ccccc32)CC1 (stereo unspecified) -43.8%, Cc1ccc(NC(=O)c2ccco2)nc1 -31.3%, N#Cc1c(N)n(C2OC(CO)C(O)C2O)c2ncnc(N)c12 (stereo unspecified) -30.8%, O=c1c2cc(N3CCOCC3)ccc2[nH]c(=S)n1CCCN1CCCCCC1 -38%, CSc1ccc(CN2CCc3c([nH]c4ccccc34)C2)cc1 -47.4%, O=C(Nc1ccccc1Cl)C1C(c2ccccc2)C1(Cl)Cl (stereo unspecified) -37.4%, CCOC(=O)C(Cc1cc(C(C)=O)ccc1OCC)C(=O)OCC -34.1%, COc1ccc(C(=O)c2c[nH]c(C(=O)NCC3CCCO3)c2)cc1 (stereo unspecified) -34.6%, CCOc1ccccc1OCCCOc1ccc([N+](=O)[O-])cc1Cl -31.3%, CC1CCCCN1C(=O)CSc1nc2ccccc2n1CC(=O)N1CCc2ccccc21 (stereo unspecified) -30.3%, CCOc1ccccc1Nc1nnc(SCC(=O)NC(=O)c2cccn2C)s1 -37.1%, O=C(NCc1ccc(Cl)c(Cl)c1)c1cc(C2CCCCN2C(=O)c2ccccn2)on1 (stereo unspecified) -32.9%
